Results on 1 sequence are retold here after paper PMC5996148.

Where “and” joins values, the source holds several entries; their conditions need not be identical. Identical values can stand only once. This is one part of the list.

What all share (assay): protein microarray (ProtoArray v5.0), streptavidin-Alexa Fluor 647
What all share (conditions): 3'-biotin; 20 mM Tris (pH 7.5), 5 mM MgCl2, 100 mM KCl, 0.1% Tween-20, A/T-rich and random oligonucleotide blockers; temperature not stated; high values mean tight binding

For assay [1], the system named is Regulator of G-protein signaling 20 (human).
Assay [2] concerns Repulsive guidance molecule A (human).
The subject of assay [3] is Retinal dehydrogenase 1 (human).
In assay [4] the test system is Retinoid-binding protein 7 (human).
The test system of assay [5] is Retinol-binding protein 1 (human).
Assay [6] relates to Rho GDP-dissociation inhibitor 3 (human).
The test system of assay [7] is Rho GTPase-activating protein 29 (human).
Assay [8] has as its system Rho GTPase-activating protein SYDE1 (human).
Assay [9] has as its system Rho guanine nucleotide exchange factor 1 (human).
Assay [10] relates to Riboflavin kinase (human).
Assay [11] deals with Ribonuclease inhibitor (human).
Assay [12] deals with Ropporin-1B (human).
The test system of assay [13] is S-adenosylmethionine decarboxylase proenzyme (human).
The subject of assay [14] is S100A10 (human).
The subject of assay [15] is S100A11 (human).
For assay [16], the system named is S100A12 (human).
For assay [17], the system named is S100A14 (human).
For assay [18], the system named is S100A2 (human).
Assay [19] relates to S100A7 (human).
Assay [20] concerns S100A8 (human).

As to “GGGAGGCTGAGGCAGG [G4-1 biotinylated (PQS2)]”, the binding signal is -0.335 z-score and -0.258 z-score in assay [1]; -0.325 z-score in assay [2]; -0.348 z-score in assay [3]; -0.35 z-score in assay [4]; -0.326 z-score in assay [5]; -0.338 z-score in assay [6]. In addition, the binding signal was -0.342 z-score in assay [7]; -0.289 z-score in [8]; -0.264 z-score and -0.279 z-score in assay [9]; -0.295 z-score in assay [10]; -0.353 z-score in [11]; -0.369 z-score in assay [12]. In addition, the binding signal in assay [13] was -0.264 z-score; in assay [14], -0.301 z-score; in [15], -0.29 z-score; in assay [16] it was -0.305 z-score; in assay [17], -0.373 z-score; in [18], -0.344 z-score. The binding signal is -0.286 z-score in assay [19] and -0.365 z-score in assay [20].
